In US20190330365A1 (University of California, published 2019):
Results are given in words; binding and its absence hold for the method and conditions named. Some results given as binding are weak or reduced against the parent protein; the word gives no strength. For some of these results: Where a sequence is shown, tags or fusion partners need not be part of it.

Legend:
[1] = target: Mouse full-length LRP6-Fc (R&D Systems) (mouse) (UniProt O88572); test: ELISA, antigen coated at 5 µg/ml, biotinylated E34N19 at 5 µg/ml
[2] = target: T1, Recombinant human LRP6E3E4-Fc (human) (UniProt O75581); test: as above
T1 sequence (looked up): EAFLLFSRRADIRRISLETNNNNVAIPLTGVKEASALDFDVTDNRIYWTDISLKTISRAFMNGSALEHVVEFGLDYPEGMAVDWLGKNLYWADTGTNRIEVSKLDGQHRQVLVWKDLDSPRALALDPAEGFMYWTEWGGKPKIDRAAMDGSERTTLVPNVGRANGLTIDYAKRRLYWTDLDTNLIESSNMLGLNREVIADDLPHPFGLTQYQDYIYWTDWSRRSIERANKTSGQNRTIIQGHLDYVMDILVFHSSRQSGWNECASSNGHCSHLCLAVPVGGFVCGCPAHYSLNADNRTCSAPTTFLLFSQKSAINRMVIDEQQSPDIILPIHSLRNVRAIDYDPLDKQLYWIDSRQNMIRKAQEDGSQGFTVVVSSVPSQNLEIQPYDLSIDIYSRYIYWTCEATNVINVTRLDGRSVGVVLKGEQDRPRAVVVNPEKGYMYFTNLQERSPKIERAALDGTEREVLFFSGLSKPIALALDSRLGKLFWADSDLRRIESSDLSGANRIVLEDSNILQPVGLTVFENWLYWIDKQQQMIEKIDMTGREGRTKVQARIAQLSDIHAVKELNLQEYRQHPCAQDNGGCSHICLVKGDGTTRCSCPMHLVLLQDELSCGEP

[3] = target: Mouse full-length LRP6-Fc (R&D Systems) (mouse) (UniProt O88572); test: ELISA (FIG. 15A)
[4] = target: T1, Recombinant human LRP6E3E4-Fc (human); test: ELISA (FIG. 15A)

Measured: binding

B1: E34N19 (anti-LRP6E3E4 antibody, format not stated) (antibody, V domains shown)
VH: QVNLRESGGGLVQPGGSLRLSCAASGFTFSSYAMSWVRQAPGKGLEWVSAISGSGGSTYYADSVKGRFTISRDNSKNTLYLQMNSLRAEDTAVYYCAKVRGHGGNSGWVDYWGQGTLVTVSS
VL: QSVLTQDPAVSVALGQTVKITCQGDSLRTYYTSWYQQRPGQAPILVLYANTHRPSSIPDRFSGSSSGTTASLTITGAQAEDEADYYCNSRDSSGNYLFGGGTKLTVL
binds: [1] | [2] | [3] | [4]
